# According to PubChem BioAssay AID1347076 (National Center for Advancing Translational Sciences (NCATS), 2019):
# About 13,000 (3.2%) of roughly 400,000 compounds were called active. The shares of active, inactive and inconclusive entries below differ from those in the screen. Calls come from the whole dose curve; as a rule, active = well fitted cell-killing curve with a large enough effect; inconclusive = small, poorly fitted or top-dose-only effect, or effect the other way; inactive = flat fitted curve, though single readings scatter. Potencies of inconclusive entries are doubtful fits and often do not repeat.
# Test: qHTS assay for MDR1-selective chemotherapeutics: Primary screen using the drug-selected MDR subline cells KB-V1; note: nearly all actives have a fitted effect of over 60% in size
# Conditions: KB-V1 MDR cells viability, CellTiter-Glo, 72 h; activity change, negative = cytotoxicity: at 46.1 µM (top of the series)
# Summary of the method: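 Compound-treated KB-V1 multidrug-resistant cells, 72 h, 37 degrees C; viability by CellTiter-Glo. Fitted qHTS curves give the values.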
# % is set by controls: 0 for no effect and ±100 for the full control effect; potency is the fitted concentration of half-maximal effect.
SMILES,Potency,"activity change, negative = cytotoxicity"
Fc1ccc(CN2CCN(C(=S)NCCc3ccccc3)CC2)c(Cl)c1,active: 20.6 µM,–
Cc1ccc(SCC2(O)CCN(S(=O)(=O)c3ccc(Cl)cc3)CC2)cc1,"inconclusive: 20.6 µM [cytotoxic, single point]",–
CC(=O)c1c(-c2ccccc2)[nH]c2ccccc12,active: 7.31 µM,–
CCc1ccc(OCC(=O)NC(=S)Nc2cccc(CO)c2)c(Br)c1,inactive,–
COc1ccc(C(CC(=O)Nc2ccc(F)c(Cl)c2)N2Cc3ccccc3C2=O)cc1OC (stereo unspecified),active: 18.4 µM,–
Cc1ccc(C)c(OCC(=O)N(Cc2ccccc2)c2c(N)n(Cc3ccccc3)c(=O)[nH]c2=O)c1,"inconclusive: 23.1 µM [cytotoxic, single point]",–
O=c1nc(/C=C/c2cc([N+](=O)[O-])ccc2Cl)cc(C(F)(F)F)[nH]1,"inconclusive: 16.4 µM [cytotoxic, partial curve]",–
Cc1cc2ccccn2c1C(=O)c1ccc(C#N)cc1,"inconclusive: 20.6 µM [cytotoxic, single point]",–
CCOc1ccc(-c2nc(CSCC(=O)NC3CCCc4ccccc43)c(C)o2)cc1 (stereo unspecified),inactive,–
Clc1ccccc1-c1nn2c(Cn3cnc4ccccc43)nnc2s1,"inconclusive: 3.26 µM [cytotoxic, full curve]",–
CCOc1ccc(NC(=O)CSc2n[nH]c(N)n2)c([N+](=O)[O-])c1,inactive,–
CCOC(=O)C1CCCN(C(=O)Cn2ncc3c([nH]c4ccccc43)c2=O)C1 (stereo unspecified),"inconclusive: 29.1 µM [rising, single point]",–
CCN(C(=O)CSc1nc2ccccc2n1CC(=O)Nc1cccc(C#N)c1)c1ccccc1,inactive,–
Cc1cc(NC(=O)CN2C(=O)C(C)(C)c3ccccc32)ccc1Br,inactive,–
O=S(=O)(c1cccc(S(=O)(=O)N2CCCC2)c1)N1CCCCC1,"inconclusive: 16.4 µM [cytotoxic, single point]",–
CCC1=C(CC2NCCc3ccccc32)CC2c3cc(OC)c(OC)cc3CCN2C1 (stereo unspecified),"inconclusive: 4.61 µM [cytotoxic, full curve, poor fit]",–
COc1cc(C(=O)N2CCCN(c3nc4cc(C)ccc4cc3C#N)CC2)cc(OC)c1OC,active: 18.4 µM,–
CCCCCCCNC(=O)C1(CC2CC(c3cccc(Br)c3)=NO2)CCNCC1 (stereo unspecified),"inconclusive: 16.4 µM [cytotoxic, single point]",–
CCn1nccc1C(=O)Nc1ccc(Cl)cc1Cl,"inconclusive: 18.4 µM [cytotoxic, single point]",–
COc1cc(S(=O)(=O)N2CCCC3(CCCCC3)C2)ccc1-n1cnnn1,active: 20.6 µM,–
CC(C)(C)NC(=O)c1ccccc1NC(=O)C1CCCO1 (stereo unspecified),–,inconclusive: -41.3%
c1ccc(CN2CCN(c3ncnc4c3[nH]c3ccccc34)CC2)cc1,active: 2.59 µM,–
CCc1ccc(C(=O)NNC(=O)c2ccc(OCC(=O)N3CCOCC3)c(OC)c2)cc1,"inconclusive: 29.1 µM [rising, single point]",–

# Single records, from the list above. Order of values: Potency | activity change, negative = cytotoxicity
# `CCn1nccc1C(=O)Nc1ccc(Cl)cc1Cl` in the list: inconclusive: 18.4 µM [cytotoxic, single point] | –
# `CCN(C(=O)CSc1nc2ccccc2n1CC(=O)Nc1cccc(C#N)c1)c1ccccc1` in the list: inactive | –

# Remaining list, next part.

SMILES,Potency,"activity change, negative = cytotoxicity"
CC(C)(C)NC(=O)C1CCN(c2ccc(S(=O)(=O)N3CCOCC3)cc2Cl)CC1,"inconclusive: 13 µM [cytotoxic, partial curve, poor fit]",–
Cc1cc(Sc2nnc(N)s2)c2ccccc2n1,inactive,–
O=C1CSc2cc(Cl)ccc2N1,"inconclusive: 18.4 µM [cytotoxic, partial curve, poor fit]",–
COc1ccccc1-c1cc2nc(-c3ccccc3)cc(N3CCN(C(=O)c4ccoc4)CC3)n2n1,active: 9.2 µM,–
CCCCOc1ccc(C(C)NC(=O)CCS(=O)(=O)Cc2ccccc2F)cc1 (stereo unspecified),"inconclusive: 0.0146 µM [cytotoxic, full curve, poor fit]",–
CCC(NC(=O)c1cccc(Cn2nc(C)c([N+](=O)[O-])c2C)c1)c1ccc(C(C)C)cc1 (stereo unspecified),active: 2.91 µM,–
CN1CCN(S(=O)(=O)c2cccc(C(=O)Nc3ccc(Br)cc3Br)c2)CC1,"inconclusive: 6.51 µM [cytotoxic, partial curve]",–
C=CCN(CC=C)S(=O)(=O)c1ccc(NC(=S)NC(=O)c2ccc(-c3ccccc3)cc2)cc1,"inconclusive: 5.8 µM [cytotoxic, full curve]",–
CCOc1ccc(CCNC(=O)CCc2nnc3ccc(N4CCCCC4)nn23)cc1OCC,inactive,–
O=C(NNC(=S)NC(=O)c1ccccc1[N+](=O)[O-])c1ccccc1,inactive,–
Cc1sc2nc(CN3CCCC3)nc(N3CCN(S(=O)(=O)c4ccccc4)CC3)c2c1C,inactive,–
COc1ccc(NC(=O)C2CCOC2=O)cc1 (stereo unspecified),"inconclusive: 14.6 µM [rising, partial curve, poor fit]",–
COc1cc(C(=O)C(=O)N2CCN(c3ccc(C)cc3)CC2)cc2ccccc12,"inconclusive: 20.6 µM [cytotoxic, single point]",–
CN(C)c1ccc(N=Nc2ccccc2C(=O)OCC(=O)NCC2CCCCC2)cc1,active: 7.31 µM,–
CCC(=O)Nc1ccc(C(=O)OCc2ccc(Cl)c(Cl)c2)cc1,"inconclusive: 23.1 µM [cytotoxic, single point]",–
COc1ccc(CN(C)C[C@@H]2OCc3cnnn3CCCC(=O)N([C@H](C)CO)C[C@H]2C)cc1,inactive,–
O=C(/C=C/Nc1ccc(F)cc1Br)c1ccccc1,"inconclusive: 23.1 µM [cytotoxic, partial curve]",–
COc1ccc(-c2cc(C(F)F)n3ncc(C(=O)Nc4cc(C)on4)c3n2)cc1,inactive,–
CN(Cc1ccccc1)C1CCCN(C(=O)c2ccc(Cl)s2)C1 (stereo unspecified),inactive,–
O=C(NC(c1ccc(F)cc1)c1ccc2ccccc2n1)C1CCN(CCOc2ccc(Cl)cc2Cl)CC1 (stereo unspecified),"inconclusive: 29.1 µM [cytotoxic, single point]",–
Cc1cc(Cl)c(S(=O)(=O)N2CCN(c3ccccc3)CC2)cc1OCC(N)=O,"inconclusive: 16.4 µM [cytotoxic, single point]",–
Cc1ccc(CS(=O)(=O)c2nc3c(c(N(C)C)n2)CCCC3)cc1,"inconclusive: 25.9 µM [cytotoxic, single point]",–
CC(C)C[C@H]1CN([C@@H](CC(C)C)CN2CCC[C@H]2CN2C(=O)C(=O)NC[C@@H]2Cc2ccc(O)cc2)C(=O)C(=O)N1CC1CCCCC1,"inconclusive: 29.1 µM [rising, single point]",–
